Assay results reported in patent US20220273662A1, “USE OF SILDENAFIL AND ROCK INHIBITORS FOR TREATING STROKE OR SEQUELAE FOLLOWING STROKE” (SOONCHUNHYANG UNIVERSITY INDUSTRY ACADEMY COOPERATION …, priority 2019, published 2022).
Structures can show the parent of a compound that is named as a salt. For at least one compound, name, drawing or mass did not settle the structure.

System: MCAo30 acute stroke (cerebral infarction) model
Test: Barnes maze test (cognitive function, escape time)
Assay type: in vivo, Sprague-Dawley male rats
Details: compared to normal control, MCAo30 about 3-fold longer than normal control

Question: Which “escape time (in words)” value does the source give for `CCCc1nn(C)c2c(=O)[nH]c(-c3cc(S(=O)(=O)N4CCN(C)CC4)ccc3OCC)nc12` [sildenafil, sildenafil citrate] here?
Answer: level similar to that of the normal control
